Test results as given in article PMC9414295.
Results are given in words; binding and its absence hold for the method and conditions named. In cells and extracts the contact can be indirect. Some entries that bind do so weakly or less than the wild type.

Sequences of proteins named here, by UniProt entry; tags and fusion partners are left off.
UniProt P03129: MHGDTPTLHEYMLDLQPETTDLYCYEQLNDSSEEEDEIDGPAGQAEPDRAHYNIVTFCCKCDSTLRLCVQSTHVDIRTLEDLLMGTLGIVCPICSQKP

Target: FLAG-HA-tagged HPV-16 E7 (human papillomavirus type 16) (UniProt P03129)
Experiment: co-IP

B1: retinoblastoma tumor suppressor protein pRB (protein, UniProt P06400 1-928)
chain: MPPKTPRKTAATAAAAAAEPPAPPPPPPPEEDPEQDSGPEDLPLVRLEFEETEEPDFTALCQKLKIPDHVRERAWLTWEKVSSVDGVLGGYIQKKKELWGICIFIAAVDLDEMSFTFTELQKNIEISVHKFFNLLKEIDTSTKVDNAMSRLLKKYDVLFALFSKLERTCELIYLTQPSSSISTEINSALVLKVSWITFLLAKGEVLQMEDDLVISFQLMLCVLDYFIKLSPPMLLKEPYKTAVIPINGSPRTPRRGQNRSARIAKQLENDTRIIEVLCKEHECNIDEVKNVYFKNFIPFMNSLGLVTSNGLPEVENLSKRYEEIYLKNKDLDARLFLDHDKTLQTDSIDSFETQRTPRKSNLDEEVNVIPPHTPVRTVMNTIQQLMMILNSASDQPSENLISYFNNCTVNPKESILKRVKDIGYIFKEKFAKAVGQGCVEIGSQRYKLGVRLYYRVMESMLKSEEERLSIQNFSKLLNDNIFHMSLLACALEVVMATYSRSTSQNLDSGTDLSFPWILNVLNLKAFDFYKVIESFIKAEGNLTREMIKHLERCEHRIMESLAWLSDSPLFDLIKQSKDREGPTDHLESACPLNLPLQNNHTAADMYLSPVRSPKKKGSTTRVNSTANAETQATSAFQTQKPLKSTSLSLFYKKVYRLAYLRLNTLCERLLSEHPELEHIIWTLFQHTLQNEYELMRDRHLDQIMMCSMYGICKVKNIDLKFKIIVTAYKDLPHAVQETFKRVLIKEEEYDSIIVFYNSVFMQRLKTNILQYASTRPPTLSPIPHIPRSPYKFPSSPLRIPGGNIYISPLKSPYKISEGLPTPTKMTPRSRILVSIGESFGTSEKFQKINQMVCNSDRVLKRSAEGSNPPKPLKKLRFDIEGSDEADGSKHLPGESKFQQKLAEMTSTRTRMQKQKMNDSMDTSNKEEK
- binding: binds
